# Test results as given in the supplement of paper PMC12873370.
# Several values for one entry are separate records, joined by “and”; a condition that tells them apart may be missing. Equal entries are not always repeated. This is one part of the list. Repeats are few or missing, and single values can be far off.
# What was measured:
# [1] = tested on: MEPP (mouse ovarian epithelium Trp53/Pten KO); assay: cell viability relative to untreated (fraction); higher = less growth inhibition; settings: 5 µM; 3 days
# [2] = tested on: PREPP (mouse prostate epithelium Trp53/Pten KO); assay: as above; settings: 5 µM; 3 days
SMILES,cell viability [1],cell viability [2]
C[C@@H]1O[C@@H](O[C@H]2[C@H](Oc3cc(O)c4c(c3)O[C@H](c3ccc(O)cc3)CC4=O)O[C@H](CO)[C@@H](O)[C@@H]2O)[C@H](O)[C@H](O)[C@H]1O,1.12,0.819
COc1cc([C@@H]2[C@H]3CO[C@@]4(O)C(=O)[C@@H]2C=C([C@H]2Oc5cc(O)cc(O)c5C(=O)[C@@H]2O)[C@@H]34)ccc1O,1.28,0.904
C[C@H](CCC(=O)O)[C@H]1CC[C@H]2[C@@H]3[C@@H](O)C[C@@H]4C[C@H](O)CC[C@]4(C)[C@H]3CC[C@]12C,1.06,0.89
Nc1ncnc2c1ncn2[C@@H]1O[C@H](CO)[C@@H](O)[C@H]1O,1.08,1.07
O=C(O)c1ccccc1,1.02,0.848
C=CCSC,0.998,1
CC[C@]12CCCN3CCc4c(n(c5ccccc45)[C@@](O)(C(=O)OC)C1)[C@@H]32,1.32,1.03
COc1cccc2c1C(=O)c1c(O)c3c(c(O)c1C2=O)C[C@@](O)(C(C)=O)C[C@@H]3O[C@H]1C[C@H](N)[C@H](O)[C@H](C)O1,0.405,0.296
Nc1nc2c(ncn2[C@@H]2O[C@H](COP(=O)(O)O)[C@@H](O)[C@H]2O)c(=O)[nH]1,0.942,0.87
CCCCOC(=O)c1ccc(O)cc1,1.1,0.982
C=C1CCC[C@]2(C)C[C@@H]3OC(=O)C(C)=C3C[C@@H]12,1.13,0.946
O=C(O)CCCCCCCCCCC(=O)O,1.18,0.179
O=C(O)c1ccc(C(=O)O)cc1,0.991,0.994
Cc1cc(=O)oc2ccc(O)cc12,0.855,1.2
O=C(O)C1=C[C@@H](O)[C@@H](O)[C@H](O)C1,1.13,1.34
CCCC(N)C(=O)O (stereo not given),1.02,0.982
C[C@H]1COc2c(N3CCN(C)CC3)c(F)cc3c(=O)c(C(=O)O)cn1c23,1,0.939
OCc1ccccc1O,0.923,1.14
N[C@@H](Cc1c[nH]c2ccc(O)cc12)C(=O)O,0.968,0.726
CC[C@@H]1C(=O)OC[C@@H]1Cc1cncn1C,1.03,0.898
O=c1c(O)c(-c2ccc(O)cc2)oc2cc(O)cc(O)c12,1.31,1
C[C@@H](CC[C@@]1(O)O[C@H]2C[C@H]3[C@@H]4CC[C@@H]5C[C@@H](O[C@@H]6O[C@H](CO)[C@H](O)[C@H](O)[C@H]6O[C@@H]6O[C@H](CO)[C@@H](O)[C@H](O)[C@H]6O)CC[C@]5(C)[C@H]4CC[C@]3(C)[C@H]2[C@@H]1C)CO[C@@H]1O[C@H](CO)[C@@H](O)[C@H](O)[C@H]1O,0.964,0.693
CC[C@H](C)[C@H](N)C(=O)O,0.974,0.987
COc1cc(NS(C)(=O)=O)ccc1Nc1c2ccccc2nc2ccccc12,0.629,0.73
CC1(C)[C@@H](O)CC[C@]2(C)[C@H]3C(=O)C=C4[C@@H]5C[C@@](C)(C(=O)O)CC[C@]5(C)CC[C@@]4(C)[C@]3(C)CC[C@@H]12,0.911 and 0.853,1.08 and 0.807
CC(C)(S)[C@@H](N)C(=O)O,0.791 and 0.884,0.949 and 0.967
O=C(O)CCCCCCCCCC(=O)O,1.13,0.773

SMILES,cell viability [1],cell viability [2]
Cc1c(N)c(=O)n(-c2ccccc2)n1C,0.982,0.839
CC[C@H](C)[C@@H]1NC(=O)[C@H](Cc2ccc(O)cc2)NC(=O)[C@@H](N)CSSC[C@@H](C(=O)N2CCC[C@H]2C(=O)N[C@@H](CC(C)C)C(=O)NCC(N)=O)NC(=O)[C@H](CC(N)=O)NC(=O)[C@H](CCC(N)=O)NC1=O,0.827,0.929
O=Cc1ccc(O)cc1,1.18,0.929
C=C[C@]1(C)C[C@@H](OC(=O)CO)[C@]2(C)[C@H](C)CC[C@]3(CCC(=O)[C@@H]32)[C@@H](C)[C@@H]1O,0.763,0.977
O=C(O)[C@H](O)c1ccccc1,0.904,0.872
C[C@]12CCC(=O)C=C1CC[C@@H]1[C@@H]2C(=O)C[C@@]2(C)[C@H]1CC[C@]2(O)C(=O)CO,1.09,0.99
C[C@@H](O)[C@H](N)C(=O)O,0.922,0.997
O=C(/C=C/c1ccc(O)c(O)c1)O[C@@H]1C[C@](O)(C(=O)O)C[C@@H](O)[C@H]1O,0.84,1.2
O=c1cc(-c2ccc(O)cc2)oc2c([C@@H]3O[C@H](CO)[C@@H](O)[C@H](O)[C@H]3O)c(O)c([C@@H]3OC[C@H](O)[C@H](O)[C@H]3O)c(O)c12,1.01,0.901
O=C(O)C1=CO[C@@H](O[C@@H]2O[C@H](CO)[C@@H](O)[C@H](O)[C@H]2O)[C@H]2[C@@H]1C=C[C@]2(O)CO,0.951,0.894
C=C(C)[C@@H]1CC[C@]2(C(=O)O)CC[C@]3(C)[C@H](CC[C@@H]4[C@@]5(C)CC[C@H](O[C@@H]6OC[C@H](O)[C@H](O)[C@H]6O[C@@H]6O[C@@H](C)[C@H](O)[C@@H](O)[C@H]6O)[C@@](C)(CO)[C@@H]5CC[C@]43C)[C@@H]12,0.936,0.698
CO/N=C(\C(=O)N[C@@H]1C(=O)N2C(C(=O)O)=C(CSc3nc(=O)c(O)nn3C)CS[C@H]12)c1csc(N)n1,1.36,1.03
CCN1CCN(C(=O)N[C@@H](C(=O)N[C@@H]2C(=O)N3[C@@H]2SC(C)(C)[C@@H]3C(=O)O)c2ccccc2)C(=O)C1=O,1.21,0.866
C[C@@]12C[C@@]3(O)O[C@@H](O1)[C@]1(COC(=O)c4ccccc4)[C@H]3C[C@@]12O[C@@H]1O[C@H](CO)[C@@H](O)[C@H](O)[C@H]1O,1.14,0.957
COc1ccccc1C(=O)O,0.895,0.975
Cc1ccc(Sc2ccccc2N2CCNCC2)c(C)c1,1,0.73
CCCCCCCCCCCCCC(=O)O,0.984,0.858
O=C([O-])CC(O)(CC(=O)[O-])C(=O)[O-].[Na+].[Na+].[Na+],0.895,0.915
Oc1cc(O)cc(/C=C/c2ccc(O)c(O)c2)c1,0.913,0.937
OC[C@H]1O[C@@H](n2cnc3c2N=CNC[C@H]3O)C[C@@H]1O,1.09,0.88
COc1cc(Cc2cnc(N)nc2N)cc(OC)c1OC,0.909,0.88
CC/C=C\C/C=C\C/C=C\CCCCCCCC(=O)O,1.04,1.02
O=C1O[C@H]([C@@H](O)CO)C([O-])=C1O.[Na+],1.02,1.05
CO[C@@H]1[C@H](OC(=O)/C=C/C=C/C=C/C=C/C(=O)O)CC[C@]2(CO2)[C@H]1[C@@]1(C)O[C@@H]1CC=C(C)C,0.802,0.802
O=C(O)c1cc2ccccc2[nH]1,0.984,0.976
O=C1c2cccc(O)c2C(=O)c2c(O)cccc21,0.939,0.899
CC(=O)N[C@@H](CCC(=O)O)C(=O)O,1.04,0.903

# Structures above containing a carbonyl joined to an NH by a bond outside any ring (4):
SMILES,cell viability [1],cell viability [2]
CC[C@H](C)[C@@H]1NC(=O)[C@H](Cc2ccc(O)cc2)NC(=O)[C@@H](N)CSSC[C@@H](C(=O)N2CCC[C@H]2C(=O)N[C@@H](CC(C)C)C(=O)NCC(N)=O)NC(=O)[C@H](CC(N)=O)NC(=O)[C@H](CCC(N)=O)NC1=O,0.827,0.929
CO/N=C(\C(=O)N[C@@H]1C(=O)N2C(C(=O)O)=C(CSc3nc(=O)c(O)nn3C)CS[C@H]12)c1csc(N)n1,1.36,1.03
CCN1CCN(C(=O)N[C@@H](C(=O)N[C@@H]2C(=O)N3[C@@H]2SC(C)(C)[C@@H]3C(=O)O)c2ccccc2)C(=O)C1=O,1.21,0.866
CC(=O)N[C@@H](CCC(=O)O)C(=O)O,1.04,0.903

# (next part)

SMILES,cell viability [1],cell viability [2]
COc1cc(/C=C/CO)cc(OC)c1O[C@@H]1O[C@H](CO)[C@@H](O)[C@H](O)[C@H]1O,1.24,1.07
N[C@@H](Cc1cc(I)c(Oc2ccc(O)c(I)c2)c(I)c1)C(=O)O,0.86,0.974
COc1ccc(-c2oc3cc(O)cc(O)c3c(=O)c2O)cc1,1.06,0.855
CC(C)=CCC/C(C)=C/Cc1c(O)c(CC=C(C)C)c2c(c1O)C(=O)C1=C[C@@H]3C[C@H]4C(C)(C)O[C@@](C/C=C(/C)C(=O)O)(C3=O)[C@@]14O2,0.275,0.645
CN1CCN(c2c(F)cc3c(=O)c(C(=O)O)cn4c3c2OCN4C)CC1,0.873,0.814
CNC(C)C1CCC(N)C(OC2C(N)CC(N)C(OC3OCC(C)(O)C(NC)C3O)C2O)O1 (stereo not given),1.17,0.847
COc1ccc2cc3[n+](cc2c1O)CCc1cc2c(cc1-3)OCO2,1.23,0.823
O=c1c(O)c(-c2ccccc2)oc2cc(O)cc(O)c12,0.979,0.979
Cc1c(-c2ccccc2)oc2c(C(=O)OCCN3CCCCC3)cccc2c1=O,0.735,0.961
Cc1ncc(CO)c(CO)c1O,0.936 and 0.86,0.932 and 1.01
O=C1CCC[C@@H]2[C@H]3CCC[N+]4([O-])CCC[C@@H](CN12)[C@@H]34 (stereo not given in full),1.03,1.16
NCCOP(=O)(O)O,0.887,1.05
CC(=O)[C@H]1CC[C@H]2[C@@H]3CC=C4C[C@@H](O)CC[C@]4(C)[C@H]3CC[C@]12C,1.1,0.966
CSCCC(NC(C)=O)C(=O)O (stereo not given),0.868,0.916
C[C@H]1[C@H](C)CC[C@]2(C(=O)O)CC[C@]3(C)C(=CC[C@@H]4[C@@]5(C)CC[C@H](O)C(C)(C)[C@@H]5CC[C@]43C)[C@H]12,0.816,1.27
CC(C)(O/N=C(\C(=O)N[C@@H]1C(=O)N2C(C(=O)[O-])=C(C[n+]3ccccc3)CS[C@H]12)c1csc(N)n1)C(=O)O,0.747 and 0.82,0.919 and 0.953
CC(C)(Sc1cc(C(C)(C)C)c(O)c(C(C)(C)C)c1)Sc1cc(C(C)(C)C)c(O)c(C(C)(C)C)c1,0.884,0.821
C=CCc1ccc(O)c(-c2ccc(O)c(CC=C)c2)c1,0.846,0.932
N[C@@H](Cc1c[nH]c2ccccc12)C(=O)O,1.14,0.954
Cc1nc(C)c(C)nc1C,0.997,1.02
COc1ccc([C@@H]2CC(=O)c3c(O)cc(O)cc3O2)cc1O,1.4,1.35
O=C(O)CCCCCCCCCCCCC(=O)O,1.1,0.976
Cc1cc(O)cc(O)c1,1.23,1.05
CC[C@@H](CO)NCCN[C@@H](CC)CO,1.1,0.981
CCCOc1ccc(C(=O)OCCN(CC)CC)cc1N,0.991,0.85
C[C@H](CCC(=O)NCCS(=O)(=O)O)[C@H]1CC[C@H]2[C@@H]3[C@H](O)C[C@@H]4C[C@H](O)CC[C@]4(C)[C@H]3C[C@H](O)[C@]12C,1.03,0.872
